± gives the standard deviation. The entries are a selection whose mix differs from that of the whole data set. The uncertainty is large for many entries. The list shows a part of the results.
Assays:
[1] = test system: EfPiwi piRISC loaded with L1MC piRNA (26 nt); experiment: pre-steady-state target cleavage rate (min^-1); guide: L1MC piRNA 5'p-UAACUAAAUACUAUGCAAGCUGUAGG; higher = faster piRNA-guided slicing of the target
Procedure, shortened: (§1)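 For Cleave-'n-Seq, a transcribed, DNA-blocked target RNA library […] met 1 nM active affinity-purified piRISC with one synthetic guide at 33 °C for 0–8 or 0–960 min in HEPES–potassium acetate buffer, with or without 500 nM GTSF1 partner protein. Uncleaved targets were sequenced and normalised to depth and weakly complementary targets, with three trials pooled and k3 capped at 0.0001 min^-1. A burst-and-steady-state fit supplied the pre-steady-state cleavage rate.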

[2] = test system: MILI (PIWIL2) piRISC loaded with L1MC piRNA (26 nt); experiment: pre-steady-state target cleavage rate (min^-1); MIWI and MILI are mouse PIWI proteins and EfPiwi is from a freshwater sponge; tags in brackets are library labels; higher = faster piRNA-guided slicing of the target; settings: guide: L1MC piRNA 5'p-UAACUAAAUACUAUGCAAGCUGUAGG; auxiliary factor: none (no GTSF1);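 note: 1 nM active piRISC with 0.1 nM target library at 33 °C single turnover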
Procedure, shortened: as §1

[3] = auxiliary factor: 500 nM Ephydatia muelleri Gtsf1
[4] = auxiliary factor: none (no Gtsf1)

Sequence | pre-steady-state target cleavage rate [1, 3] | pre-steady-state target cleavage rate [1, 4] | pre-steady-state target cleavage rate [2]
UCCUGCUACAGCUUGCAUAGUAUUUAGAAA | 0.00439 ± 0.0012 | 0.000508 ± 0.012 | –
UCCUGGUACUGCUUGCAUAGAAUUUAGUUA | 0.0019 ± 0.0026 | 0.000299 ± 0.025 | 0.00194 ± 0.0065
UCCUGGAUGAGCUUGCAUACUAUUAAGUUA | 0.00231 ± 0.0024 | 0.000315 ± 0.036 | 0.000997 ± 0.0068

From the supplement of paper PMC10338343
